These are yes or no findings as the source states them, for the method shown. Some entries that bind do so weakly or less than the wild type.
What was measured:
[1] = molecular target: IκBα-ECFP-FKBP 12 fusion protein (without TNF-α treatment or with IKK inhibitor SC-514; not phosphorylated) (UniProt P25963); experiment: co-translocation with FK506-coated magnetic nanoparticles in live HeLa cells, confocal microscopy
[2] = molecular target: IκBα-ECFP-FKBP 12 fusion protein (without TNF-α treatment or with IKK inhibitor SC-514; not phosphorylated) (UniProt P25963); experiment: co-translocation with FK506-coated magnetic nanoparticles in live HeLa cells, confocal microscopy; without TNF-α / with SC-514

Protein sequences, listed by entry. Tags and fused reporters are not part of them. Lines headed by an entry give the natural chain unless they say otherwise; changes in a name come on top.
UniProt P25963: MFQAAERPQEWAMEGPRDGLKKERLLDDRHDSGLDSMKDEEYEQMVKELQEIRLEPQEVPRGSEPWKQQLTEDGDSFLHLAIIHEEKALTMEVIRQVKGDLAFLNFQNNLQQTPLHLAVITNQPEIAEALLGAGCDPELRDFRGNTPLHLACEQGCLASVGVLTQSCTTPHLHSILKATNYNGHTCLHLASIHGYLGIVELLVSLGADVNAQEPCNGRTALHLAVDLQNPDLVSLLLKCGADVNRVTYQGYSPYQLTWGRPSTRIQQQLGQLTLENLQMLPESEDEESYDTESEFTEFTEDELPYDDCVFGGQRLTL
UniProt Q04206: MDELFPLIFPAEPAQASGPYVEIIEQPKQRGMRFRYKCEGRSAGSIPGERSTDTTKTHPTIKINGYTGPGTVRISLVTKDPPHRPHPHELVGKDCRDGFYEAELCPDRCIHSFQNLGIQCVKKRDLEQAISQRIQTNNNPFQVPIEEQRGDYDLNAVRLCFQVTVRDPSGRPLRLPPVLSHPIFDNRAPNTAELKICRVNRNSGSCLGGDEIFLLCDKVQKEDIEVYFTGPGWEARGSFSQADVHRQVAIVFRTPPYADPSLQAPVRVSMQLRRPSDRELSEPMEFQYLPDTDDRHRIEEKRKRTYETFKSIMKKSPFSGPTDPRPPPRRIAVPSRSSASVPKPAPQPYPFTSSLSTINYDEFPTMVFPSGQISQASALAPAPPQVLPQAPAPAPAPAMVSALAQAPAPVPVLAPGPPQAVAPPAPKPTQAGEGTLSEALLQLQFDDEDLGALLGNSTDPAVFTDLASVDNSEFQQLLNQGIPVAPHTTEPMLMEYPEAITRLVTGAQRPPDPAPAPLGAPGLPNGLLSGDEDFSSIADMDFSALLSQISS

EYFP-ReIA fusion protein (from UniProt Q04206 1-551)
binding [1]: binds | binding [2]: binds

Reference: US20080242557A1, “System For Detecting Molecular Interactions” (CGK CO., LTD., priority 2004, published 2008)
